Values from PubChem BioAssay AID504784 (Drosophila RNAi Screening Center, 2011).
The deposit covers about 17,000 reagents; below is an unselected part of those with a known target gene and a result. 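Each column is one replicate's B-score; the combined score over replicates was not deposited, so single values may mislead.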 Further read-outs or replicates are left out here. Reagent sequences are not shown.

- Aim: 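Fly genes whose silencing alters how much lipid cells keep in droplets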 (primary screen)
- System: Drosophila Kc167 embryonic cells
- Knock-down reagent: long dsRNA against Drosophila genes, about 250 ng dsRNA per well
- Timing: 4 days
- Conditions: cells fed 400 µM oleic acid bound to BSA
- Detection: 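Cells imaged and segmented; ratio of lipid droplet area to nuclear area, log-transformed, then normalised as a B-score over the screen; higher means more stored lipid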
- Direction: droplet/nuclear area B-score: higher = more stored lipid (overstorage)

eEF1alpha2 [DRSC14079] → droplet/nuclear area B-score, replicate 1: -0.736
eEF1alpha2 [DRSC16658] → droplet/nuclear area B-score, replicate 1: -2.23
CG17104 [DRSC02573] → droplet/nuclear area B-score, replicate 1: -0.0333
Prosbeta5 [DRSC07517] → droplet/nuclear area B-score, replicate 1: -0.457
CG31533 [DRSC13018] → droplet/nuclear area B-score, replicate 1: 0.0891
CG14855 [DRSC14979] → droplet/nuclear area B-score, replicate 1: -0.11
dpr7 [DRSC17109] → droplet/nuclear area B-score, replicate 1: 0.694
CG6686 [DRSC02979] → droplet/nuclear area B-score, replicate 1: -2.93
Ncc69 [DRSC10412] → droplet/nuclear area B-score, replicate 1: 0.713
Ncc69 [DRSC10413] → droplet/nuclear area B-score, replicate 1: 1.76
RunxB [DRSC20395] → droplet/nuclear area B-score, replicate 1: 1.63
RunxB [DRSC20525] → droplet/nuclear area B-score, replicate 1: 0.611
RunxB [DRSC20526] → droplet/nuclear area B-score, replicate 1: -3.08
RunxB [DRSC23150] → droplet/nuclear area B-score, replicate 1: 0.773
Use1 [DRSC10180] → droplet/nuclear area B-score, replicate 1: 1.31
CRIF [DRSC11811] → droplet/nuclear area B-score, replicate 1: 3.34
CG9864 [DRSC07346] → droplet/nuclear area B-score, replicate 1: -0.276
CG7650 [DRSC10898] → droplet/nuclear area B-score, replicate 1: -2.27
sov [DRSC17930] → droplet/nuclear area B-score, replicate 1: -0.139
CG4270 [DRSC00648] → droplet/nuclear area B-score, replicate 1: -0.205
RanBPM [DRSC06079] → droplet/nuclear area B-score, replicate 1: -0.786
CG10019 [DRSC00279] → droplet/nuclear area B-score, replicate 1: 0.706
Cchl [DRSC15949] → droplet/nuclear area B-score, replicate 1: 0.0318
CheB38b [DRSC22874] → droplet/nuclear area B-score, replicate 1: 1.18
CG8159 [DRSC16392] → droplet/nuclear area B-score, replicate 1: -0.394
Kr-h1 [DRSC00908] → droplet/nuclear area B-score, replicate 1: -2.42
Kr-h1 [DRSC03355] → droplet/nuclear area B-score, replicate 1: -1.59

2 of these entries, set out differently:
Ncc69 [DRSC10412]
- droplet/nuclear area B-score, replicate 1: 0.713

Ncc69 [DRSC10413]
- droplet/nuclear area B-score, replicate 1: 1.76
